According to the supplement of paper PMC12823440, “Inhibitors supercharge kinase turnover through native proteolytic circuits” (Nature, 2025):
The list shows a part of the results. Hit calls seldom repeat between salt and free forms of one compound.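 In K562 cells expressing nanoluciferase-fused kinases, luminescence was recorded at 4 h intervals between 2 and 18 h, normalized as percent of control with DMSO at 100% and a positive control at 0%. A significant (2 sigma) signal drop marks a time point as decreased. The authors' rule for a hit is not shown and takes in more than the number of time points.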

Amino acid sequences for entries named in this document (tags omitted). A change or cut given only in a name is not applied to a line headed by its entry.
UniProt Q9UQM7, whole entry: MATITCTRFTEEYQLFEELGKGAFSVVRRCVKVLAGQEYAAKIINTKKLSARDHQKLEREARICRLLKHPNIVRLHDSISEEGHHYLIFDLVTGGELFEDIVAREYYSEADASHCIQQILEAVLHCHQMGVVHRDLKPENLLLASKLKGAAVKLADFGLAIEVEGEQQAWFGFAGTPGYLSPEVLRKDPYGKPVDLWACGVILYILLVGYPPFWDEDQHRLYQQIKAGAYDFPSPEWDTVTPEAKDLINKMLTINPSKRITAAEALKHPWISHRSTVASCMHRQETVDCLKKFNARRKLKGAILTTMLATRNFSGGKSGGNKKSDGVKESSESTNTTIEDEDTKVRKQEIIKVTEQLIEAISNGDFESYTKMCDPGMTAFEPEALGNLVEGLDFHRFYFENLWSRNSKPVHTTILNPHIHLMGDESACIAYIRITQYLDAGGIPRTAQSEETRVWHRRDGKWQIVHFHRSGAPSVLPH
UniProt Q13555: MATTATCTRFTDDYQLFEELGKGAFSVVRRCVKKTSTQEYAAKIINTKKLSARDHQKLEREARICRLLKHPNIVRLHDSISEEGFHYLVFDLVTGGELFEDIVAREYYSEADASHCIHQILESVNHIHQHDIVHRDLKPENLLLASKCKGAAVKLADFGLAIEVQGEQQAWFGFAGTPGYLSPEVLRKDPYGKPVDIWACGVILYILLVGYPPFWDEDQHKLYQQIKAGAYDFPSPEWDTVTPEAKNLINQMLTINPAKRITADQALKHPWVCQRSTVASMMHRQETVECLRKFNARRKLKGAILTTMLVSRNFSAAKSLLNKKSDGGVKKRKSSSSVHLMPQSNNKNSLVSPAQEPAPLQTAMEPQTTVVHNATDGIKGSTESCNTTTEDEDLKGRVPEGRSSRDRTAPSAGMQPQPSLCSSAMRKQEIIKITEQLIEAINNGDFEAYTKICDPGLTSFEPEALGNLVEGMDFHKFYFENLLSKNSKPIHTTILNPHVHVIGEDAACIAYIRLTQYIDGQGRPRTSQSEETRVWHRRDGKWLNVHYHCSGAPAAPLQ
UniProt Q15131: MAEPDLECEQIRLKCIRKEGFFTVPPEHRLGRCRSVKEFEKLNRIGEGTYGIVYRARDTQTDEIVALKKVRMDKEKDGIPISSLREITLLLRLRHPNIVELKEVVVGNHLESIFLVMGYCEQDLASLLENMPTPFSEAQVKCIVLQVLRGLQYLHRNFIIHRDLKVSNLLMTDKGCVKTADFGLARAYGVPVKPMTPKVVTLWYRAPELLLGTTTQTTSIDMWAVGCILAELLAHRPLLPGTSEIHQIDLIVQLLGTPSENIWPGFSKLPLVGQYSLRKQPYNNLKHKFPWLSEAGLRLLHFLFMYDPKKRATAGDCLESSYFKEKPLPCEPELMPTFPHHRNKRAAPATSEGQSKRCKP
UniProt Q00526: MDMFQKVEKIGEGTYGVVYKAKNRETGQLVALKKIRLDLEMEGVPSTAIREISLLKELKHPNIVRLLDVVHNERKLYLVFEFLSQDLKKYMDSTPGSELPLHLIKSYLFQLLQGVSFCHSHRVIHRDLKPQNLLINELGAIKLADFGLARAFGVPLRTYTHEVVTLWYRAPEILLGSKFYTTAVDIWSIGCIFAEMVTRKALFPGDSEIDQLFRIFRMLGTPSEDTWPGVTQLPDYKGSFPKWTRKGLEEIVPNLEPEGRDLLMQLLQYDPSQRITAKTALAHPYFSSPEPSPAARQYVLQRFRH
UniProt Q00534, whole entry: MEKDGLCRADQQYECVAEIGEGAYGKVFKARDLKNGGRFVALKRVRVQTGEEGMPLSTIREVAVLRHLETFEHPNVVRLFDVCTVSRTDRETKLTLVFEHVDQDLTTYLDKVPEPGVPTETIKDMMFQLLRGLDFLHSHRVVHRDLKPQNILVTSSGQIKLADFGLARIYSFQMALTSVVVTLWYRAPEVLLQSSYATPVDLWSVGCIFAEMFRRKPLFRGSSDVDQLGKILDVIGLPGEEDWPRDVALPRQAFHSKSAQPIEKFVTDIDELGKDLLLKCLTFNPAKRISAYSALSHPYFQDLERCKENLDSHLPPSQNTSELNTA
UniProt O96017, whole entry: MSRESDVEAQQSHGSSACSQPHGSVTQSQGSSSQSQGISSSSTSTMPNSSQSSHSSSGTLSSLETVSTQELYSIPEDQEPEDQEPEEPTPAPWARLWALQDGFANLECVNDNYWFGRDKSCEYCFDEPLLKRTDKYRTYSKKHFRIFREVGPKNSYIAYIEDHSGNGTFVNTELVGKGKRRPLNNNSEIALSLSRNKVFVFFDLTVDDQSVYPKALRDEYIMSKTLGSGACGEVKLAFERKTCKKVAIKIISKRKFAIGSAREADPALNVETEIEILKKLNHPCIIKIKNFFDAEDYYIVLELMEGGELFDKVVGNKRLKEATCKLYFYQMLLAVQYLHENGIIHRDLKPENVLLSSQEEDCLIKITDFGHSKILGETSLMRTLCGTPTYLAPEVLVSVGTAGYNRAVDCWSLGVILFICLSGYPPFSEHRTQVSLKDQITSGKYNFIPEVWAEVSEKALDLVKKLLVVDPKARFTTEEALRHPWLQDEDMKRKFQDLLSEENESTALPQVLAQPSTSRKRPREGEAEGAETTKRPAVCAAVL
UniProt P07333, whole entry: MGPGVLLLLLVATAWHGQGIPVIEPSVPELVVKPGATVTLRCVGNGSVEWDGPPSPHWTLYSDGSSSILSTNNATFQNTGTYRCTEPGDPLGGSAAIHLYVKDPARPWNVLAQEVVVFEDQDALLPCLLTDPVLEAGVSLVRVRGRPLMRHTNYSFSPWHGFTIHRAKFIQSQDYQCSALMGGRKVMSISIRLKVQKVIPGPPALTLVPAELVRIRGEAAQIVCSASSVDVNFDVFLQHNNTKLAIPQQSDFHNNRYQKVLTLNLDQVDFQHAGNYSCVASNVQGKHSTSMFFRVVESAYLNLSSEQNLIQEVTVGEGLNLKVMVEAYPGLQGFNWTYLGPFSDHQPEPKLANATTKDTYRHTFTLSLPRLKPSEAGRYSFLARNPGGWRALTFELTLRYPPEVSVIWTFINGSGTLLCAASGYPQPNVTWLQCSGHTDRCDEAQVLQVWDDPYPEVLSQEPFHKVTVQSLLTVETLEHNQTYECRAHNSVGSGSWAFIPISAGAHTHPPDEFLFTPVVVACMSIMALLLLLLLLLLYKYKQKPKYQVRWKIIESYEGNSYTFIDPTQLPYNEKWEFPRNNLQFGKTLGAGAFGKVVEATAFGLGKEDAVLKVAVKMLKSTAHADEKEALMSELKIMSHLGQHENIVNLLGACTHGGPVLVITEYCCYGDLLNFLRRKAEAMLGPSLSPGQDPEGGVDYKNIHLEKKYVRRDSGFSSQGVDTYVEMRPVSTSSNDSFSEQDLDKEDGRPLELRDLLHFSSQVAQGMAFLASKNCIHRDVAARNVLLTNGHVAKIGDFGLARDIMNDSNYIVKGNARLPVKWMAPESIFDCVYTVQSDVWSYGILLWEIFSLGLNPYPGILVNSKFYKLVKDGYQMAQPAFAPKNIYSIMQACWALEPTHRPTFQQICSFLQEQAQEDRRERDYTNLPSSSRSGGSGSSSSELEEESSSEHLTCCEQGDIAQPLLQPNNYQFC
UniProt P41240: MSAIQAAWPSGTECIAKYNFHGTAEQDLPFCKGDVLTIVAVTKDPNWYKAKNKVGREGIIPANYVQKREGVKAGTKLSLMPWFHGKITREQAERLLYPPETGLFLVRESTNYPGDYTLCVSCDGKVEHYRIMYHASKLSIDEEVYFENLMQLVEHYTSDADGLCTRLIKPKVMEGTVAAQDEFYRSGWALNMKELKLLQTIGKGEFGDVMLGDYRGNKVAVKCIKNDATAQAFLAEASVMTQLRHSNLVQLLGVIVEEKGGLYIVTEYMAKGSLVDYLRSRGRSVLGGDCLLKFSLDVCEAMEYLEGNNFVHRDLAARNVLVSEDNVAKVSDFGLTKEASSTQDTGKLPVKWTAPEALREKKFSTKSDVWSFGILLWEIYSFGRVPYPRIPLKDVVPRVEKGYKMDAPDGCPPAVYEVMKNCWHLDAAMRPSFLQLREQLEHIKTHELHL
UniProt P48729: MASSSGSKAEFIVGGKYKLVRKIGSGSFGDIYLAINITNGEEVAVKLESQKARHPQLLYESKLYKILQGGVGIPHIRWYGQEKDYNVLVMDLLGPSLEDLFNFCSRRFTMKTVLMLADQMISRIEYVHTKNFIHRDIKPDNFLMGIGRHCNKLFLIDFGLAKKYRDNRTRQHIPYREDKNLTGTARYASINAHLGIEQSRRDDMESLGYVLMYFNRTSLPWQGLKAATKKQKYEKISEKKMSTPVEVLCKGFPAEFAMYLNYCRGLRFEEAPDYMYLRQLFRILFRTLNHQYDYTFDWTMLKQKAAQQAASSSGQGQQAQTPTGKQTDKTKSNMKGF
UniProt P48730: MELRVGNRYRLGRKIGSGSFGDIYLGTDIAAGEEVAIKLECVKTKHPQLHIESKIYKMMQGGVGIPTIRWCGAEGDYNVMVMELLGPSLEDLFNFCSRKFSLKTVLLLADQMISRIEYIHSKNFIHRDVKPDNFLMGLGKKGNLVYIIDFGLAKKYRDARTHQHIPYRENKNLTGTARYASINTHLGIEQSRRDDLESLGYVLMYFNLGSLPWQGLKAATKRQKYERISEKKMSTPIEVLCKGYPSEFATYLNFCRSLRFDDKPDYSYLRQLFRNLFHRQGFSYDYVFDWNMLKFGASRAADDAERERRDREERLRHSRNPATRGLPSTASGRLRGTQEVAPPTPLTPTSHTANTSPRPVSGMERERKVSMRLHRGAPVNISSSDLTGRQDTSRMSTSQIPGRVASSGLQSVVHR
UniProt Q9Y463, whole entry, looked up: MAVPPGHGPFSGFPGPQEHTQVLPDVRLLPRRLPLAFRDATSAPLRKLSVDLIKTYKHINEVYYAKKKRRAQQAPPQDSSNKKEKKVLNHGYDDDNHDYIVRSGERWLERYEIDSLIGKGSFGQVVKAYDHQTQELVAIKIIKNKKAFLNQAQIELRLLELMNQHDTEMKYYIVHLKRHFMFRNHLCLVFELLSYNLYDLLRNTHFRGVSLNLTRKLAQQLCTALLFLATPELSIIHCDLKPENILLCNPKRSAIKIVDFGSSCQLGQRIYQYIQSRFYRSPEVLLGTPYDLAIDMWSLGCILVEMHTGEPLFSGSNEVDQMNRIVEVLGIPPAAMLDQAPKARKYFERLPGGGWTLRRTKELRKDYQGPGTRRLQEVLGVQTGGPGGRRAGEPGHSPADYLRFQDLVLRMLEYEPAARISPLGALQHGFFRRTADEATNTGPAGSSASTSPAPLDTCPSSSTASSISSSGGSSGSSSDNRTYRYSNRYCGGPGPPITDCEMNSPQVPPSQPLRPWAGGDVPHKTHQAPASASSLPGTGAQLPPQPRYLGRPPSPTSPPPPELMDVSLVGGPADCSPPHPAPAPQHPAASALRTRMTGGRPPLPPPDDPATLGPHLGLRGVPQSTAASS
UniProt Q92630: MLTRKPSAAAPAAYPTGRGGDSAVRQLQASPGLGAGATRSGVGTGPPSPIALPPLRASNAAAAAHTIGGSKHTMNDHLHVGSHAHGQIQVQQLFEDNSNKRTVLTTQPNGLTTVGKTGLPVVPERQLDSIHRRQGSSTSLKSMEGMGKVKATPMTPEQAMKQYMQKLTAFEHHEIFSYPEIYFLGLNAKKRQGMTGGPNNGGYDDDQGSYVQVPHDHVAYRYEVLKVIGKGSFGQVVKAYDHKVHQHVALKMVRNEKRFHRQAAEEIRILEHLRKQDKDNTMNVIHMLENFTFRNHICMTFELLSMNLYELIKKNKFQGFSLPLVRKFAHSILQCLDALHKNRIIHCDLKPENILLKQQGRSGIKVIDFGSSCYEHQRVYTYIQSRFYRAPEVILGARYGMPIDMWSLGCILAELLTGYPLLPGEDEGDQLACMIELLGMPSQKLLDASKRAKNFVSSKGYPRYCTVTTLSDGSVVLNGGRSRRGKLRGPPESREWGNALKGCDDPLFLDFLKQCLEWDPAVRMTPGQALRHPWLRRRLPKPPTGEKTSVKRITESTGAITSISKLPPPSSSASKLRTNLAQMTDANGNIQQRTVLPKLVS
UniProt Q00535, whole entry, looked up: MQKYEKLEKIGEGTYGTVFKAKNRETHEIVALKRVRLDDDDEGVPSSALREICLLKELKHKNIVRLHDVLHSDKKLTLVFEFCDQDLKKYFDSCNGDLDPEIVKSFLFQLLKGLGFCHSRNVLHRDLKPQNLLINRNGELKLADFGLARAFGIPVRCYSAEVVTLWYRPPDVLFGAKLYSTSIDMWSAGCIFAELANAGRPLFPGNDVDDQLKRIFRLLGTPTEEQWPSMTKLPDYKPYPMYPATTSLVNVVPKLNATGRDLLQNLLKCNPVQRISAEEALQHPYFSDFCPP

Columns and labels:
Experiment in all cases: number of time points (of 5) at which kinase-Nluc abundance scored as decreased, DMSO-normalised (count); higher = more persistent destabilization
Settings in all cases: K562; 2-18 h
[1] = target: CAMK2A (UniProt Q9UQM7)
[2] = target: CAMK2G (UniProt Q13555)
[3] = target: CDK10 (UniProt Q15131)
[4] = target: CDK2 (UniProt P24941)
[5] = target: CDK3 (UniProt Q00526)
[6] = target: CDK6 (UniProt Q00534)
[7] = target: CHEK2 (UniProt O96017)
[8] = target: CSF1R (UniProt P07333)
[9] = target: CSK (UniProt P41240)
[10] = target: CSNK1A1 (UniProt P48729)
[11] = target: CSNK1D (UniProt P48730)
[12] = target: DDR1 (UniProt Q08345)
[13] = target: DYRK1B (UniProt Q9Y463)
[14] = target: DYRK2 (UniProt Q92630)
[15] = target: EGFR (UniProt P00533)
[16] = target: EGFR_G719S (UniProt P00533)
[17] = target: EGFR_G719S_T790M (UniProt P00533)
[18] = target: EGFR_L718V (UniProt P00533)
[19] = target: EGFR_L858R (UniProt P00533)
[20] = target: CDK5 (UniProt Q00535)

Measured: number of time points

COc1cc2ncnc(Nc3cccc(Cl)c3F)c2cc1OC(=O)N1CCN(C)C[C@H]1C [Zorifertinib] (10 µM)
not listed: [20]
0: all other assays above

Brc1c(Br)c(Br)c2n[nH]nc2c1Br (10 µM)
not listed: [4]
0: all other assays above

COc1ccc(COc2ccc(Cc3cnc(N)nc3N)cc2OC)cc1 (10 µM)
not listed: [4] | [8]
0: all other assays above

COc1cc2ncn(-c3cc(OCc4ccccc4C(F)(F)F)c(C(N)=O)s3)c2cc1OC (10 µM)
not listed: [8]
0: all other assays above

COc1ccc2c(C(=O)Nc3ccc(NC(=O)c4nn(C5CCN(C(=O)CC(C)(C)C#N)CC5)c5ccc(F)cc45)cc3Cl)cnn2c1 [Src Inhibitor 3] (2.5 µM)
3: [14]
2: [2] | [3] | [7] | [11] | [12] | [15]
0: [4] | [5] | [20] | [6]
not listed: [9]
1: all other assays above

COc1ccc(F)c(F)c1C(=O)c1cnc(NC2CCN(S(C)(=O)=O)CC2)nc1N (2.5 µM)
3: [7] | [8] | [10] | [16] | [18]
4: [14]
1: [13]
0: [1] | [2] | [3] | [6] | [9] | [11]
not listed: [4]
2: all other assays above

O=c1oc2ccccc2c(O)c1Cc1c(O)c2ccccc2oc1=O [Dicoumarol] (10 µM)
not listed: [8] | [15] | [16] | [17] | [18] | [19]
0: all other assays above

O=C1NC(=NCc2cccs2)S/C1=C\c1ccc2ncccc2c1 (10 µM)
not listed: [4]
0: all other assays above

CNC(=O)c1cccc2cc(Oc3ccnc4cc(OCC5(N)CC5)c(OC)cc34)ccc12 [Lucitanib] (10 µM)
1: [12]
not listed: [4]
0: all other assays above

CC1(C)CC=C(c2nc(C3CC(C)(C)OC(C)(C)C3)ccc2NC(=O)c2nc(C#N)c[nH]2)CC1 [Edicotinib] (2.5 µM)
not listed: [8]
0: all other assays above

Cc1ccc(F)c(NC(=O)Nc2ccc(-c3cccc4[nH]nc(N)c34)cc2)c1 [Linifanib] (2.5 µM)
5: [3] | [12]
not listed: [8]
0: all other assays above

COc1cc2ncnc(Nc3ccc(O)cc3)c2cc1OC (10 µM)
not listed: [4]
0: all other assays above

COc1c(Cl)cc2c([nH]c3cnccc32)c1NC(=O)c1cccnc1C (10 µM)
not listed: [4]
0: all other assays above

CC(C)(C)c1cc(NC(=O)Nc2ccc(-c3cn4c(n3)sc3cc(OCCN5CCOCC5)ccc34)cc2)no1 [Quizartinib] (10 µM)
2: [12] | [15]
1: [2] | [11]
3: [9]
not listed: [8]
0: all other assays above

NS(=O)(=O)c1ccc(Nc2nc(OCC3CCCCC3)c3[nH]cnc3n2)cc1 (10 µM)
not listed: [4]
0: all other assays above

CCCn1cnc2c(NCc3ccccc3)nc(NC(CC)CO)nc21 (stereo unspecified) [Ca2+ channel agonist 1] (2.5 µM)
not listed: [4] | [5] | [20]
0: all other assays above

O=C1c2ccccc2-c2n[nH]c3cccc1c23 (10 µM)
not listed: [15] | [16] | [17] | [18] | [19] | [20]
0: all other assays above

CC(=O)N1CCN(c2ccc(OCC3COC(Cn4ccnc4)(c4ccc(Cl)cc4Cl)O3)cc2)CC1 (stereo unspecified) [Ketoconazole] (2.5 µM)
not listed: [8]
0: all other assays above

CC(C)(C)c1nc2c3cc[nH]c(=O)c3c3cc(F)ccc3c2[nH]1 [Pyridone 6] (10 µM)
not listed: [20]
0: all other assays above

CCCS(=O)(=O)Nc1ccc(F)c(C(=O)c2c[nH]c3ncc(Cl)cc23)c1F (10 µM)
not listed: [8] | [14]
0: all other assays above
